Patent US10293001B2, “Compositions and methods for restoring or rejuvenating stem/progenitor cell function” (University of Pittsburgh—Of the Commonwealth System of …, priority 2012, dated 2019)
At least one compound was matched to its structure with a doubt left.

Legend:
Format in all cases: cell-based, mouse
Ercc1^−/Δ MDSPCs [1] = assay: Adipogenic differentiation assay (AdipoRed); conditions: 10 nM
Ercc1^−/Δ MDSPCs [2] = assay: Autophagy marker LC3-II immunoblotting in MDSPCs; conditions: 10 nM, p<0.001
Ercc1^−/Δ MDSPCs [3] = assay: Apoptosis assay (TUNEL, cleaved PARP)
Ercc1^−/Δ MDSPCs [4] = assay: Cellular senescence assay (SA-β-gal, p16, p21)
Ercc1^−/Δ MDSPCs [5] = assay: Chondrogenic differentiation assay (micromass, Alcian blue); conditions: progeroid MDSPCs, 10 nM
Ercc1^−/Δ MDSPCs [6] = assay: Myogenic differentiation assay; conditions: 10 nM
[7] = Ercc1−/Δ MDSPCs, 10 nM, p<0.001

CO[C@H]1C[C@@H]2CC[C@@H](C)[C@@](O)(O2)C(=O)C(=O)N2CCCC[C@H]2C(=O)O[C@H]([C@H](C)C[C@@H]2CC[C@@H](O)[C@H](OC)C2)CC(=O)[C@H](C)/C=C(\C)[C@@H](O)[C@@H](OC)C(=O)[C@H](C)C[C@H](C)/C=C/C=C/C=C/1C [Rapamycin, rapamycin] was tested, and the PPARγ expression (Ercc1^−/Δ MDSPCs [1]; Ercc1−/Δ MDSPCs, real-time RT-PCR, p<0.001) was “reduced level”, the LPL expression (Ercc1^−/Δ MDSPCs [1]; Ercc1−/Δ MDSPCs, real-time RT-PCR, p=0.001) was “reduced level” and the “adipogenic differentiation (AdipoRed)” value (Ercc1^−/Δ MDSPCs [1]; progeroid MDSPCs, 15 days, p<0.001) was “attenuated”. The “amount of LC3-II” value (Ercc1^−/Δ MDSPCs [2]) was “significantly increased”, the “percent of TUNEL positive cells” value (Ercc1^−/Δ MDSPCs [3]; [7]) was “effectively reduced” and the “expression of cleaved PARP” value (Ercc1^−/Δ MDSPCs [3]; MDSPCs, immunoblotting) was “attenuate”. For the same compound, the “percentage of SA-β-gal-positive cells” value (Ercc1^−/Δ MDSPCs [4]; [7]) was “notably reduced”, the “expression of p16” value (Ercc1^−/Δ MDSPCs [4]; MDSPCs, immunoblotting) was “decreased” and the “expression of p21” value (Ercc1^−/Δ MDSPCs [4]; MDSPCs, immunoblotting) was “decreased”. For the same compound, the “chondrogenic differentiation (Alcian blue)” value (Ercc1^−/Δ MDSPCs [5]; six days, p=0.002) was “attenuated”, the “expression of Col2A1” value (Ercc1^−/Δ MDSPCs [5]; p<0.001) was “up-regulated” and the expression of aggrecan (Ercc1^−/Δ MDSPCs [5]; p=0.028) was “up-regulated”. For the same compound, the “myogenic differentiation capacity (fraction of cells expressing f-MyHC)” value (Ercc1^−/Δ MDSPCs [6]; p<0.001) was “significantly improved”, the expression of desmin (Ercc1^−/Δ MDSPCs [6]; quantitative RT-PCR) was “up-regulated” and the “expression of MyHC” value (Ercc1^−/Δ MDSPCs [6]; quantitative RT-PCR, p<0.001) was “up-regulated”.
